Assay results taken from US20190142835A1, “INHIBITION OF AUTOPHAGY USING PHOSPHOLIPASE A2 INHIBITORS” (OREGON HEALTH & SCIENCE UNIVERSITY, priority 2017, published 2019).
For at least one compound, name, drawing or mass did not settle the structure.

Experiments:
ACHN cells = experiment: High content imaging screen of 116 small molecule inhibitors for p62 and pS6; format: cell-based, human; conditions: HCI screen, 72 hr; for p62 expression and phosphorylation of S6: 7-point dilution series
Text: We used a metastatic human RCC cell line, ACHN. Small molecule inhibitors have been extensively used in RCC over the last decade. […] Importantly, p62 is an autophagy substrate that is degraded along with its cargo, and so is expected to decrease with induction of autophagy. Therefore, we monitored p62 steady-state levels as an initial screen of autophagy flux. Next, we combined the measurement of the p62 with a measurement of mTORC1 activity an independent readout to evaluate autophagy. mTORC1 plays the central role in the anabolic process by increasing protein content through ribosomal biogenesis and elongation of protein translation. Specifically, mTORC1 induces mRNA translation by inducing the activation of p70S6 kinase and the subsequent phosphorylation of the S6 ribosomal protein. To ensure increased cellular biomass, mTORC1 downregulates autophagy. We chose the phosphorylation status of the downstream target of mTORC1 signaling, ribosomal S6 (hereafter S6) as a readout for mTORC1 activity.
To provide a straightforward method for detecting the induction of autophagy, we monitored ACHN cells for small molecule inhibitors which decreased the antibody labelled levels of p62 protein and pS6 phosphorylation (see methods below for detailed experiment procedure). To that end, automated high content imaging (HCl) microscopy was used to detect induction of autophagy as documented by the […] by p62 protein expression and mTORC1 inhibition by the decrease in S6 phosphorylation. The HCl assay was optimized for 384-well plate screening. Drug screening plates were designed and created as previously described.
A 7-point dilution series of 116 small molecule inhibitors covering a 1000× concentration range were plated into three, 384-well plates using the EP Motion automated dispensing system. Control wells with equal volumes of DMSO were included as negative controls. ACHN cells were grown, trypsinized counted, and plated directly into warm drug plates using Multidrop combi dispenser. Plates were incubated for 72 hr and subsequently imaged on the Olympus ScanR Platform at 10× magnification performing 4 images per well in 384 well plates. Single-cell nuclear and cytoplasmic fluorescent intensities were calculated using the Olympus ScanR Analysis Software: the DAPI-positive region of each cell was used as a boundary to quantitate nuclei counts for analysis of cell growth and integrated nuclear DNA staining intensity was used for cell cycle analysis. A 10-pixel extension of the nuclear region (and not including the nuclear region) was used to quantitate cytoplasmic signal of immunofluorescent staining of p62 protein and phosphorylation of S6. […]

leukemia cells = conditions: cited from earlier work

Row | Compound | p62 expression and phosphorylation of S6 (ACHN cells) | autophagy induction in leukemia cells (leukemia cells) | S6 phosphorylation (ACHN cells) | induction of autophagy / autophagic flux (ACHN cells)
1 | O=c1cc(N2CCOCC2)oc2c(-c3ccccc3)cccc12 [LY-294002] | reduced both p62 expression and phosphorylation of S6 | – | – | –
2 | CO[C@H]1C[C@@H]2CC[C@@H](C)[C@@](O)(O2)C(=O)C(=O)N2CCCC[C@H]2C(=O)O[C@H]([C@H](C)C[C@@H]2CC[C@@H](O)[C@H](OC)C2)CC(=O)[C@H](C)/C=C(\C)[C@@H](O)[C@@H](OC)C(=O)[C@H](C)C[C@H](C)/C=C/C=C/C=C/1C [Rapamycin] | reduced both p62 expression and phosphorylation of S6 | – | – | –
3 | N#CC[C@H](C1CCCC1)n1cc(-c2ncnc3[nH]ccc23)cn1 [ruxolitinib] | – | induce autophagy | potently inhibited S6 phosphorylation | potent inducers of autophagic flux
